{"source": "PubChem BioAssay AID588497", "about": "(NMMLSC, 2011)", "note": "The campaign covered roughly 360,000 compounds. About 780 (0.22%) were called active. Inconclusive results, whose numbers are uncertain, are shown with a selection of clear calls. Cut-off read from the data, not from the text of the source: active = inhibition above about 35% (passing the limit was not always enough); inconclusive = no clear call, values can overlap the other calls.", "data": [{"test_system": "Botulinum neurotoxin type F light chain protease (Clostridium botulinum)", "assay": "BoNT/F light chain protease inhibitors, primary screen, biochemical, flow cytometry, MLPCN library (AID 588497); note: plate controls were buffer without enzyme for full effect and enzyme alone for no effect", "conditions": "Multiplex microsphere protease cleavage assay, at 10 µM, stronger effect = higher value", "values": [{"smiles": "Cc1cc(N/N=C/c2cccc([N+](=O)[O-])c2)nc(-n2nc(C)cc2C)n1", "inhibition": "inconclusive: -26.2%"}, {"smiles": "COCCNC(=O)c1cc2c(=O)[nH]c3ccccc3c2s1", "inhibition": "inconclusive: 10.2%"}, {"smiles": "Cc1c(C(=O)/C=C/N(C)C)nnn1-c1ccc(Cl)c(Cl)c1", "inhibition": "inconclusive: 1.7%"}, {"smiles": "Cc1ccc(NC(=S)N2CCC(NC(=O)c3ccc(F)cc3)CC2)cc1C", "inhibition": "inactive: 2.3%"}, {"smiles": "COc1ccc(CCC(=O)NC2CCCN(Cc3ccc(Cl)cc3)C2)cc1OC", "note": "(stereo not given)", "inhibition": "inconclusive: -4.1%"}, {"smiles": "COCCn1ccc2c(OCC(=O)NCCc3ccc(OC)c(OC)c3)cccc2c1=O", "inhibition": "inconclusive: -8.7%"}, {"smiles": "CC(=O)Nc1ccc(NC(=O)CSc2nnc(CC(C)O)n2-c2ccccc2)cc1", "note": "(stereo not given)", "inhibition": "inconclusive: -17.9%"}, {"smiles": "c1ccc(Sc2ncnc3ccccc23)cc1", "inhibition": "inconclusive: 5.3%"}, {"smiles": "CN(CC(=O)Nc1ccccc1Br)c1ncnc2sccc12", "inhibition": "inactive: 1%"}, {"smiles": "C=C(c1ccccc1C)[n+]1ccccc1", "inhibition": "inconclusive: 25.3%"}, {"smiles": "CC(C)=N/N=C1/NC(=O)C(Cc2ccccc2)S1", "note": "(stereo not given)", "inhibition": "inconclusive: 36.6%"}, {"smiles": "CC(C)CC(=O)N1CCN(Cc2ccc(C(F)(F)F)cc2)CC1", "inhibition": "inconclusive: -12.8%"}, {"smiles": "C=CCNc1nc(-c2c(C)nc3ncccn23)cs1", "inhibition": "inconclusive: -21.3%"}, {"smiles": "Cc1ccccc1C1=Nn2c(nnc2-c2ccco2)SC1", "inhibition": "inconclusive: -5.8%"}, {"smiles": "O=C1SCCC1NC(=O)C(c1ccccc1)c1ccccc1", "note": "(stereo not given)", "inhibition": "inactive: -2.7%"}, {"smiles": "CCN1CCc2ccccc2C1", "inhibition": "inactive: -13.6%"}, {"smiles": "CCOc1c(Br)cc(C(N)=O)cc1OCc1ccccc1", "inhibition": "active: 36.1%"}, {"smiles": "Cc1ccc(N2C(=O)CCC2(C#N)c2ccccc2)cc1", "note": "(stereo not given)", "inhibition": "inconclusive: 60.2%"}, {"smiles": "COCC1CCN(C(=O)c2oc3c(F)cccc3c2C)C1", "note": "(stereo not given)", "inhibition": "inconclusive: 54.4%"}, {"smiles": "COc1ccc(CC(=O)Nc2ccc(S(=O)(=O)Nc3ncccn3)cc2)cc1", "inhibition": "inconclusive: -19.2%"}, {"smiles": "Cc1ccc(-c2nc3ccccc3c(=O)n2CCN2CCOCC2)cc1", "inhibition": "inconclusive: -208%"}, {"smiles": "O=C1COCC(=O)N1CCc1c[nH]c2ccccc12", "inhibition": "inconclusive: 31.1%"}, {"smiles": "Cc1nc(SCC(=O)Nn2c(-c3ccccc3)nc3ccccc3c2=O)n[nH]1", "inhibition": "inconclusive: 5.3%"}, {"smiles": "CCOC(=O)c1sc(N/N=C/c2ccc(N(C)C)cc2)nc1C", "inhibition": "inconclusive: 10.6%"}, {"smiles": "CC(C)=NOC(=O)c1c(C)noc1-c1snnc1C", "inhibition": "inconclusive: 32.9%"}, {"smiles": "C1CCCCCC(=NNc2nn[nH]n2)CCCCC1", "inhibition": "inconclusive: -24.5%"}, {"smiles": "Cc1ccc(C(=O)NCC(=O)NCC(c2cccs2)N(C)C)cc1C", "note": "(stereo not given)", "inhibition": "inconclusive: 15.9%"}, {"smiles": "CCc1nnc(NC(=O)CCC(=O)NC2CCCc3ccccc32)s1", "note": "(stereo not given)", "inhibition": "inconclusive: -6.8%"}, {"smiles": "CC1=C(C(=O)Nc2ccccc2)C(c2ccco2)NC(=O)N1", "note": "(stereo not given)", "inhibition": "inactive: 5.2%"}, {"smiles": "CCOc1ccc(N2C(=O)CC(NNc3nc4ccccc4s3)C2=O)cc1", "note": "(stereo not given)", "inhibition": "inconclusive: 14.7%"}, {"smiles": "S=c1[nH]nc(SCc2ccccc2)c2[nH]cnc12", "inhibition": "inactive: 6%"}, {"smiles": "O=C(/C=C/c1ccccc1)NC(=S)NNC(=O)c1cnccn1", "inhibition": "inconclusive: -3.4%"}, {"smiles": "NC(=S)c1c(Cl)cc(C(F)(F)F)cc1Cl", "inhibition": "inconclusive: 39.2%"}, {"smiles": "CC(=O)Cn1cnc2c(sc3nc(C)cc(C)c32)c1=O", "inhibition": "inconclusive: -37.1%"}, {"smiles": "CCn1nc(C)cc1C(=O)Sc1cccc(Br)c1", "inhibition": "inconclusive: 35.9%"}, {"smiles": "NC(=O)c1ccc(NC(=O)COc2cccc3c2CCNC3=O)cc1", "inhibition": "inconclusive: 48.7%"}, {"smiles": "CCc1sc(C(=O)Nc2cc(S(=O)(=O)N3CCOCC3)ccc2OC)cc1C", "inhibition": "inactive: -7.3%"}, {"smiles": "NC(=O)c1ccc(Cl)c2ccccc12", "inhibition": "inconclusive: -3.9%"}, {"smiles": "COc1cc(-c2nc(-c3cccc(C)c3)no2)cc(OC)c1OC", "inhibition": "active: 43.3%"}, {"smiles": "CC(Oc1ccc(Br)cc1)c1nc2c3ccccc3nc(=S)n2[nH]1", "note": "(stereo not given)", "inhibition": "active: 36.5%"}, {"smiles": "Cc1cccc(NC(=O)c2ccccc2NC(=O)c2ccccc2)n1", "inhibition": "inconclusive: -22.9%"}, {"smiles": "Cc1ccc(C)c(NC(=O)C2CCCN(S(=O)(=O)c3c(C)noc3/C=C/N(C)C)C2)c1", "note": "(stereo not given)", "inhibition": "inactive: 3%"}, {"smiles": "C=CCc1c(C)nc2cc(-c3ccc(C)cc3)[nH]n2c1=O", "inhibition": "inconclusive: -36.6%"}, {"smiles": "COc1ccc(S(=O)(=O)NC(C)C(=O)N2CCCC2)cc1Cl", "note": "(stereo not given)", "inhibition": "inconclusive: 14.5%"}, {"smiles": "CCOc1ccc(N(CC(=O)Nc2cccc(Br)c2)S(C)(=O)=O)cc1", "inhibition": "inconclusive: -20.6%"}, {"smiles": "Cc1ccc(CNC(=O)CN(C(=O)C2(C)CC(=O)N=C3C=CC=CN32)c2ccccc2F)cc1", "note": "(stereo not given)", "inhibition": "inactive: 4.6%"}, {"smiles": "Cc1cccc(C)c1OCC(=O)Nc1ccncc1", "inhibition": "inconclusive: 26.4%"}, {"smiles": "COc1cccc(CNC(=O)COC(=O)c2ccc(-c3ccc(O)cc3)cc2)c1", "inhibition": "inactive: -4.4%"}, {"smiles": "Cc1ccc(CN=C(N)Nc2nc(C)cc(C)n2)cc1", "inhibition": "inactive: -1.2%"}, {"smiles": "CC1(C(=O)Nc2cnc3ccccc3c2)CCN1Cc1cc2ccccc2o1", "note": "(stereo not given)", "inhibition": "inactive: -3.5%"}, {"smiles": "CCOc1ccc(Cn2c(=O)oc3ccccc32)cc1", "inhibition": "inconclusive: -30.7%"}, {"smiles": "Cc1ccc(C2N(c3cccc(Cl)c3)C(=O)N3CCCN23)cc1", "note": "(stereo not given)", "inhibition": "inconclusive: 45.7%"}, {"smiles": "CCOC(=O)c1[nH]c(C)c(C(=O)NCc2ccccn2)c1C", "inhibition": "inactive: -3.5%"}, {"smiles": "CSCCC(=O)NC1CC(C)(C)Cc2c1cnn2-c1ccccc1C", "note": "(stereo not given)", "inhibition": "inconclusive: 2.6%"}, {"smiles": "COc1ccc(N2CCN(C(=O)COC(=O)/C=C/c3ccc(OC(F)F)cc3)CC2)cc1", "inhibition": "inconclusive: 9.9%"}, {"smiles": "COc1ccc(Br)cc1CNCCc1cccc(Cl)c1", "inhibition": "inconclusive: -52.3%"}, {"smiles": "CCOC(=O)C1CCN(C(=O)c2cc(S(=O)(=O)N3CCOCC3)ccc2C)CC1", "inhibition": "inconclusive: -4.7%"}, {"smiles": "CC(C)(C)Nc1nc(-c2ccccn2)nc2ccccc12", "inhibition": "inconclusive: -0.4%"}, {"smiles": "Nc1nc(NCc2ccccc2)nc(NCc2ccccc2)c1[N+](=O)[O-]", "inhibition": "inactive: -5.4%"}, {"smiles": "COc1cccc(Nc2ccc([N+](=O)[O-])c3nonc23)c1", "inhibition": "inconclusive: -8.9%"}, {"smiles": "Cc1ccc2nc(-c3ccc(C#N)cc3)c(Cc3ccccc3C(F)(F)F)n2c1", "inhibition": "inactive: 1.1%"}, {"smiles": "CN1CCN(c2nc(NCc3ccco3)nc(N)c2[N+](=O)[O-])CC1", "inhibition": "inconclusive: -40.6%"}, {"smiles": "COc1cccc(Cn2cccc(NC(=O)NCc3ccccc3)c2=O)c1", "inhibition": "inconclusive: -26.8%"}, {"smiles": "Cc1[nH]n(-c2ccccc2)c(=O)c1/C=C1\\C=NN=C1c1ccccc1", "inhibition": "inconclusive: 54.5%"}, {"smiles": "CCCCOc1ccc(CN2CCSCC2)cc1", "inhibition": "inconclusive: -43.3%"}, {"smiles": "Cc1ccc(NC(=O)/C=C/c2ccc([N+](=O)[O-])s2)cc1", "inhibition": "inactive: 2.4%"}, {"smiles": "CC(C(=O)c1ccc(Br)cc1)[n+]1cccc2ccccc21", "note": "(stereo not given)", "inhibition": "inconclusive: -44.2%"}, {"smiles": "CC(=O)C(Sc1nnnn1-c1ccccc1)C(C)=O", "inhibition": "inconclusive: 45.8%"}, {"smiles": "COC(=O)CCCC(=O)NC1CC(C)(C)Cc2c1cnn2-c1ccc(C)cc1", "note": "(stereo not given)", "inhibition": "inconclusive: 11%"}, {"smiles": "CSCCC(NC(=O)c1ccccc1)C(=O)NNC(=O)c1ccccc1", "note": "(stereo not given)", "inhibition": "inconclusive: -7.7%"}, {"smiles": "Cc1cn([C@H]2C[C@H](O)[C@@H](CNC(=O)c3ccccn3)O2)c(=O)[nH]c1=O", "inhibition": "inactive: -2.9%"}, {"smiles": "COc1c(OC(C)=O)ccc(/C=C/c2ccc3ccccc3n2)c1[N+](=O)[O-]", "inhibition": "inactive: -5.6%"}, {"smiles": "CCOC(=O)c1ccc2nc(C(F)(F)F)[nH]c(=O)c2c1", "inhibition": "inconclusive: -29.2%"}, {"smiles": "O=C(Nc1cccc(Cl)c1)N1CCOCC1", "inhibition": "inconclusive: -12.6%"}, {"smiles": "COc1cc(CNCc2ccc(OC)c3ccccc23)cc(OC)c1OC", "inhibition": "inconclusive: 15.4%"}, {"smiles": "CCOC(=O)c1c(NC(C)=O)sc2c(OCCN(CC)CC)c(Br)ccc12", "inhibition": "inactive: -0.1%"}, {"smiles": "CCc1nn(C(C)C(=O)NCc2ccc(Cl)cc2)c(=O)c2cc3occc3n12", "note": "(stereo not given)", "inhibition": "inactive: -7.3%"}, {"smiles": "CC(C)CNC(=O)c1ccccc1N(Cc1ccccc1)S(C)(=O)=O", "inhibition": "inconclusive: -47.9%"}, {"smiles": "CC1CCN(S(=O)(=O)c2ccc3c(c2)CCN3C(=O)C2CCC2)CC1", "inhibition": "inconclusive: -21.6%"}, {"smiles": "C=CCOC(=O)C1=C(C)OC(N)=C(C#N)C1c1c(C)nn(-c2ccccc2)c1Cl", "note": "(stereo not given)", "inhibition": "inconclusive: -8.4%"}, {"smiles": "CC(=O)NC(=Cc1ccccc1)C(=O)N1CCCC1C(=O)O", "note": "(stereo not given)", "inhibition": "inactive: 3.9%"}, {"smiles": "O=C(CN1CCCC1)Nc1ccc(Br)cc1[N+](=O)[O-]", "inhibition": "inconclusive: 14.1%"}, {"smiles": "COCCn1c(C)cc(/C=C2/SC(=O)N(C(C)C(=O)OC)C2=O)c1C", "note": "(stereo not given)", "inhibition": "inconclusive: -25.8%"}, {"smiles": "NS(=O)(=O)c1ccc(OC(=O)CNC(=O)OCc2ccccc2)cc1", "inhibition": "inconclusive: -14.5%"}, {"smiles": "Cc1cccn2c(=O)c(/C=C(\\C#N)C(N)=O)c(Oc3ccccc3)nc12", "inhibition": "inconclusive: 1.7%"}, {"smiles": "O=C(N/N=C/c1cc(O)ccc1Br)c1cccnc1", "inhibition": "inactive: 1.6%"}, {"smiles": "Cc1ccc(Cn2ncc3c(N4CCN(CCc5ccccc5)CC4)ncnc32)cc1", "inhibition": "inconclusive: -45.2%"}, {"smiles": "N/C(=N/OC(=O)c1ccccc1Cl)c1nonc1N", "inhibition": "inactive: -1.5%"}, {"smiles": "COc1ccccc1N1CCN(Cc2ccccc2Cl)CC1", "inhibition": "inactive: -6.7%"}, {"smiles": "Cc1cccc(N(CC(=O)NC(C)(C)C)C(=O)CCC(=O)Nc2nccs2)c1", "inhibition": "inconclusive: 20.6%"}, {"smiles": "O=C(NCc1ccc(-c2csnn2)cc1)c1cccs1", "inhibition": "inconclusive: 22.6%"}, {"smiles": "CCc1ccc(C(=O)N/N=C/c2ccncc2)s1", "inhibition": "inactive: -10.4%"}, {"smiles": "CCC(C)Sc1nnc(NS(=O)(=O)Cc2ccccc2)s1", "note": "(stereo not given)", "inhibition": "inconclusive: 33.2%"}, {"smiles": "C=CCOc1ccc(/C=C2\\SC(=Nc3cccnc3)NC2=O)cc1", "inhibition": "inconclusive: 10.9%"}, {"smiles": "COc1ccc(NC(=O)C(C)N2C(=O)c3ccccc3C2=O)c(OC)c1", "note": "(stereo not given)", "inhibition": "inconclusive: -16.2%"}]}]}
